Assay results from patent US20090022664A1 (priority 2007, published 2009).

Experiment: general procedure: Fmoc solid-phase peptide synthesis; Rink amide resin; HBTU/diisopropyl ethyl amine; DCC, HOBt
Conditions: whole synthesis, scale 0.1 mmol

Substance: 1-(Toluene-4-sulfonyl)-aziridine-2-carboxylic acid-Gly-Val-βAla-Phe-Gly-amide
- isolated yield: 7-23%
